PubChem BioAssay AID743121 – NCATS, 2013
Test: 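Genes whose silencing strengthens cell killing by camptothecin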 (primary screen). System: MDA-MB-231 cells, a human breast cancer line. Knock-down reagent: single siRNA against human genes, 20 nM siRNA (0.8 pmol per well). Duration: 120 h (drug added 48 h after transfection, read 72 h later). Challenge: camptothecin 20 nM (about EC30) for 72 h; vehicle 0.1% DMSO in parallel plates. Measurement: 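Cell viability by ATP luminescence (CellTiter-Glo) as % of non-targeting siRNA wells, and the log2 ratio of viability without drug over viability with camptothecin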. Scale: log2 vehicle/camptothecin viability: higher = stronger sensitisation to camptothecin. Hit rule: 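Active genes have an RSA gene-level p-value below 0.001, computed from the ratios of their separate siRNAs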.
In all, the deposit lists about 26,000 reagents; shown is an unselected part. Of all reagents, 167 (0.63%) are marked active. 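Calls are per gene from RSA p-values that are not deposited; an individual active-marked siRNA can sensitise only weakly.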 Further read-outs or replicates are left out here.

log2 vehicle/camptothecin viability, by target gene and reagent
RAD54L (RAD54 like): SID164397589 -0.461 inactive; SID164397592 -0.106 inactive; SID164397594 -0.0997 inactive
USP6NL (USP6 N-terminal like): SID164405692 -0.154 inactive; SID164405695 -0.0601 inactive; SID164405697 0.158 inactive; SID164405698 -0.118 inactive
MTAP (methylthioadenosine phosphorylase): SID164376312 -0.000271 inactive; SID164376313 -0.177 inactive; SID164376314 -0.264 inactive; SID164376315 -0.173 inactive
LMO1 (LIM domain only 1): SID164374000 -0.00147 inactive; SID164374001 0.0195 inactive; SID164374003 -0.22 inactive
VEGFB (vascular endothelial growth factor B): SID164393794 -0.239 inactive; SID164393795 -0.0243 inactive; SID164393796 -0.0194 inactive; SID164393798 -0.442 inactive
GSTCD (glutathione S-transferase C-terminal domain containing): SID164533436 -0.306 inactive; SID164533439 -0.14 inactive; SID164533440 -0.261 inactive; SID164533441 -0.222 inactive
CASQ2 (calsequestrin 2): SID164356665 0.17 inactive; SID164356666 0.0229 inactive; SID164356667 0.0871 inactive; SID164356668 -0.307 inactive
OR2T8 (olfactory receptor family 2 subfamily T member 8): SID164659106 -0.139 inactive; SID164659109 -0.13 inactive; SID174316051 -0.384 inactive

Entries listed so far whose gene name begins with G or g (4):
log2 vehicle/camptothecin viability, by target gene and reagent
GSTCD (glutathione S-transferase C-terminal domain containing): SID164533436 -0.306 inactive; SID164533439 -0.14 inactive; SID164533440 -0.261 inactive; SID164533441 -0.222 inactive
